The values that follow come from paper PMC7168933, “Design, Synthesis and Biochemical Evaluation of Novel Ethanoanthracenes and Related Compounds to Target Burkitt’s Lymphoma” (Pharmaceuticals, 2020).

Structures are written as SMILES. pIC50: −log10 of the molar value.

Assay [1] deals with MUTU-1 Burkitt lymphoma cell line (EBV+). In words: cells. The conditions noted are these: Mutu-1, 24 h, read-out: IC50 MUTU-I 24 h.
Assay [2] deals with DG-75 Burkitt lymphoma cell line (EBV−, chemoresistant). Put plainly: cells. To be noted: Homo sapiens, DG-75, 48 h, read-out: IC50 DG-75 48 h.

Usually pIC50 stands for the IC50 on a negative log10 scale, so that one unit is a factor of ten. Consider `CNCCCC12CCC(c3ccccc31)c1ccccc12` [Maprotiline 8, maprotiline, reference compound], for which the pIC50 in assay [1] was 4.80; in assay [2], 4.43.
